Measured values published in patent US9914754B2 (Angiochem Inc., priority 2008, dated 2018).

Experiment: general procedure: Fmoc solid-phase peptide synthesis; Pre-loaded Fmoc-Leu-Wang resin (0.48 mmol/g); Rink amide MBHA resin with Nle (0.40 mmol/g) for ANG-Cys-NH2; HBTU/NMM (TBTU or HCTU for some peptides)
Conditions: for final purity (method not given): HPLC
[1] = whole synthesis, scale of the general procedure 100 μmol

Row | Substance | final purity (method not given) [1] | final HPLC purity [1] | final HPLC purity (conjugation step) | final purity (method not given) (conjugation step, run 1) | final purity (method not given) (conjugation step, run 2)
1 | Ac-KRRPD-YIL-OH | ≧95% | purity HPLC≧95% |  |  | 
2 | MHA-RRPYIL-OH |  | purity HPLC ≧95% |  |  | 
3 | NT-AN2Cys-NH2 |  |  | purity HPLC>95% | purity>95% | ≧95%
4 | pGlu-LysNT(8-13) | ≧95% |  |  |  | 
